Like-named read-outs stand apart in the source and are kept apart here. These are yes or no findings as the source states them, for the method shown. Some entries that bind do so weakly or less than the wild type. Each block holds one molecule with its values, some of them ahead of it.
What was measured:
Test in all cases: two-hybrid
HPRT1 (human) = target: T1, HPRT1 (human) (UniProt P00492)
T1 sequence: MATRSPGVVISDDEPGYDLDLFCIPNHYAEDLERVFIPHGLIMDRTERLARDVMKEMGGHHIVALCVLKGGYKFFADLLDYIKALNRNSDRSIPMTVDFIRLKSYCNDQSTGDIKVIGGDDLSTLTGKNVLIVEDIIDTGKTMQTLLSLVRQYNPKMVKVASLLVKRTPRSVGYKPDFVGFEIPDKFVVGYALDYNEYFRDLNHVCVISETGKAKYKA

Sequences of proteins named here, by UniProt entry; tags and fusion partners are left off. A change or cut given only in a name is not applied to a line headed by its entry.
UniProt Q15041: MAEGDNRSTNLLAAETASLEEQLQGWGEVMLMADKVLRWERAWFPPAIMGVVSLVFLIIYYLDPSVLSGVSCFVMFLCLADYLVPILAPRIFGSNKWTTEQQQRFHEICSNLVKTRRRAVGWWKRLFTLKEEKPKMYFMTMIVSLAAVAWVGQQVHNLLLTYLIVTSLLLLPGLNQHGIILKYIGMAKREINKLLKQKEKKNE
UniProt Q6ZSS7: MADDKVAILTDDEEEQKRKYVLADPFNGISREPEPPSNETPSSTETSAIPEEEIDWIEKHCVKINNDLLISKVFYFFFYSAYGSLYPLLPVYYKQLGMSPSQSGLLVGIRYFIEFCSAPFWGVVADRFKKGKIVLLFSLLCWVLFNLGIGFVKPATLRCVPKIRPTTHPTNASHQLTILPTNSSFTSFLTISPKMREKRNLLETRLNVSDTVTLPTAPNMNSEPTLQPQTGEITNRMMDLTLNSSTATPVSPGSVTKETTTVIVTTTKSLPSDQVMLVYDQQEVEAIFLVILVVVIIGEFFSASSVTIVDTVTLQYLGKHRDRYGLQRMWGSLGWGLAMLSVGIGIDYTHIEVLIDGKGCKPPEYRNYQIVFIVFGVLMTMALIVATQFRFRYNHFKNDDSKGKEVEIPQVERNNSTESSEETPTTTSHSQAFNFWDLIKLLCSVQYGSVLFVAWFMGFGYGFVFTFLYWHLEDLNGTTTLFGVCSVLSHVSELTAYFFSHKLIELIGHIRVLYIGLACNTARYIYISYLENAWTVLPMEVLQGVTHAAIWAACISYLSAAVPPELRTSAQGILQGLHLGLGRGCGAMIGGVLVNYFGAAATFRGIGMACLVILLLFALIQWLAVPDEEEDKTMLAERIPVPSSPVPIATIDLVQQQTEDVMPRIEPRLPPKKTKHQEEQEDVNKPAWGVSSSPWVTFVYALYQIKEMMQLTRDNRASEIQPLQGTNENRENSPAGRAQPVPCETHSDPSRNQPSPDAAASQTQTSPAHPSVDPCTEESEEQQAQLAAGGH
UniProt P63167: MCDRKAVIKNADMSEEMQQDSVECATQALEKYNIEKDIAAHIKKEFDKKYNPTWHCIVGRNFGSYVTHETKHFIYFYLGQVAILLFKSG
UniProt O94972: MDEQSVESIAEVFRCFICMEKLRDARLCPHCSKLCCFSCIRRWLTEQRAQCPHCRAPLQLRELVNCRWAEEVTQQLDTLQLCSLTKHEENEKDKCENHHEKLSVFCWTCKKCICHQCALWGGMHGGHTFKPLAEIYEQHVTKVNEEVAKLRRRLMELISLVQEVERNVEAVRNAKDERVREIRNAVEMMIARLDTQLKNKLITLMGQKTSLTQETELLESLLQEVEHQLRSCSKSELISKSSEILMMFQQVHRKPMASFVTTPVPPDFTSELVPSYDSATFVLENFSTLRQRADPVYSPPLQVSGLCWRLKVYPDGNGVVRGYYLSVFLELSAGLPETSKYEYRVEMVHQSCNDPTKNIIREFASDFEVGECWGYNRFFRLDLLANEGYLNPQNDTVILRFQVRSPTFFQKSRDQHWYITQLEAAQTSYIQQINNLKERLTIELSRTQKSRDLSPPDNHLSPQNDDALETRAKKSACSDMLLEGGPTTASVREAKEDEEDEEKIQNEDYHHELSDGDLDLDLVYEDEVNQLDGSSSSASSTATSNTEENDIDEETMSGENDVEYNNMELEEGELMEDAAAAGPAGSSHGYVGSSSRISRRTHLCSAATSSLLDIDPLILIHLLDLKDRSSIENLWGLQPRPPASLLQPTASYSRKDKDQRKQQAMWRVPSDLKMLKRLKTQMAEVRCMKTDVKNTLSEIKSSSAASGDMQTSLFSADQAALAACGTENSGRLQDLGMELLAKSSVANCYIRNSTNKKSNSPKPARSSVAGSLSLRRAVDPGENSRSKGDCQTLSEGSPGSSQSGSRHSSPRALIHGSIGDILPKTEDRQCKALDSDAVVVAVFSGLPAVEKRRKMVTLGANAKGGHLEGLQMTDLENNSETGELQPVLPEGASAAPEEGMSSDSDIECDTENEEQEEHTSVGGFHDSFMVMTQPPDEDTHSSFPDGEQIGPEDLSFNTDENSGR
UniProt O00560: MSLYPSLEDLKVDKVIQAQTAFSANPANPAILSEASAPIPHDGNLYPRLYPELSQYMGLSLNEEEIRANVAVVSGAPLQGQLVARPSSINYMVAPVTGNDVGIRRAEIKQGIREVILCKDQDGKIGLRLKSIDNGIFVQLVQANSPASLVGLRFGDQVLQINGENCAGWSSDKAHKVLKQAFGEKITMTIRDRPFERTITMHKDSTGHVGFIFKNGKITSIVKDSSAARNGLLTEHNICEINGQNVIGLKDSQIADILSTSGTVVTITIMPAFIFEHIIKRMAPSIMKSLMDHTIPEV
UniProt Q8NEA5: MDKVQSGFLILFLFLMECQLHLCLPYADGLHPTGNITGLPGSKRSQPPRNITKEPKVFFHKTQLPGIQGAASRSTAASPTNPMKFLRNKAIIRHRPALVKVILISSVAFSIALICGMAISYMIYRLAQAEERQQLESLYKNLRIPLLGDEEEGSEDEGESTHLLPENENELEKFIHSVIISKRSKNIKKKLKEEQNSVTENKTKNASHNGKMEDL

CEP55 (human) = target: T2, CEP55 (human) (UniProt Q53EZ4)
T2 sequence: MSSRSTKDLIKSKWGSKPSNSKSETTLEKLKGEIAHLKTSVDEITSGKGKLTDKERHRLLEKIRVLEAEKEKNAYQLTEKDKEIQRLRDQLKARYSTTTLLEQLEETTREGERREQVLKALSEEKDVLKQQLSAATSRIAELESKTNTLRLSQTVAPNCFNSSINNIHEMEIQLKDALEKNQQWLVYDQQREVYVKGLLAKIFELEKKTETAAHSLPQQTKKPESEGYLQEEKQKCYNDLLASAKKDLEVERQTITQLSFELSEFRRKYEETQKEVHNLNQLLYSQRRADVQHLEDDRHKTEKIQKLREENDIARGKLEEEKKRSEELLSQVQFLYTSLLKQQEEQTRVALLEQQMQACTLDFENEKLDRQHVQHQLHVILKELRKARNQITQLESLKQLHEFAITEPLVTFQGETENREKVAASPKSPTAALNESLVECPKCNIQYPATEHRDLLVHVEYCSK

ARL6IP1 (human) [1] = target: ARL6IP1 (human) (UniProt Q15041)
MFSD6 (human) [2] = target: MFSD6 (human) (UniProt Q6ZSS7)
IER3IP1 (human) [3] = target: T3, IER3IP1 (human) (UniProt Q9Y5U9)
T3 sequence: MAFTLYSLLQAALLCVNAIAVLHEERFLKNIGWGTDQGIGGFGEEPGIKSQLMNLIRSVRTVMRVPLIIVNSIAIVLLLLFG

PNKP Pro20Ser (human) [4] = target: PNKP Pro20Ser (human) (UniProt Q96T60)
[5] = target: PNKP, polynucleotide kinase 3'-phosphatase (wild-type allele) (human) (UniProt Q96T60)
SUCLA2 (human) = target: T4, SUCLA2 (human) (UniProt Q9P2R7)
T4 sequence: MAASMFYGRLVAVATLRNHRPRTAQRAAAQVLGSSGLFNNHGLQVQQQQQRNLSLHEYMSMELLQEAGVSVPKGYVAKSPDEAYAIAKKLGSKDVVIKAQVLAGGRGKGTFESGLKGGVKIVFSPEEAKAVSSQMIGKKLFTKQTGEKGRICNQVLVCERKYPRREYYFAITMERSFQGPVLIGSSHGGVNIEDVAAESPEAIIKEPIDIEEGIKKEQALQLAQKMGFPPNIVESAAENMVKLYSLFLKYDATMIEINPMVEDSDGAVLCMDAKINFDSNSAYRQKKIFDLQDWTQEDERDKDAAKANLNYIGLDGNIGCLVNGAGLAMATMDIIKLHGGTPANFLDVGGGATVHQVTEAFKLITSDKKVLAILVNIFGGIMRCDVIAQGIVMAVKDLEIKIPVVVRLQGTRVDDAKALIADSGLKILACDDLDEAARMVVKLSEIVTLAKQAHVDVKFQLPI

MAPK9 (human) = MAPK9 (human) (UniProt P45984)
BCL2L2 (human) = target: T5, BCL2L2 (human) (UniProt Q92843)
T5 sequence: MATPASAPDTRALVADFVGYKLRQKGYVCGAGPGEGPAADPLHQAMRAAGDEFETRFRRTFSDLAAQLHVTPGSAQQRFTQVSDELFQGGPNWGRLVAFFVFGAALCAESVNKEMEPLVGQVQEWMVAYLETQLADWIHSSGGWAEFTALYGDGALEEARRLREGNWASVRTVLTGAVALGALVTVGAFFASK

CTNNA3 (human) = target: T6, CTNNA3 (human) (UniProt Q9UI47)
T6 sequence: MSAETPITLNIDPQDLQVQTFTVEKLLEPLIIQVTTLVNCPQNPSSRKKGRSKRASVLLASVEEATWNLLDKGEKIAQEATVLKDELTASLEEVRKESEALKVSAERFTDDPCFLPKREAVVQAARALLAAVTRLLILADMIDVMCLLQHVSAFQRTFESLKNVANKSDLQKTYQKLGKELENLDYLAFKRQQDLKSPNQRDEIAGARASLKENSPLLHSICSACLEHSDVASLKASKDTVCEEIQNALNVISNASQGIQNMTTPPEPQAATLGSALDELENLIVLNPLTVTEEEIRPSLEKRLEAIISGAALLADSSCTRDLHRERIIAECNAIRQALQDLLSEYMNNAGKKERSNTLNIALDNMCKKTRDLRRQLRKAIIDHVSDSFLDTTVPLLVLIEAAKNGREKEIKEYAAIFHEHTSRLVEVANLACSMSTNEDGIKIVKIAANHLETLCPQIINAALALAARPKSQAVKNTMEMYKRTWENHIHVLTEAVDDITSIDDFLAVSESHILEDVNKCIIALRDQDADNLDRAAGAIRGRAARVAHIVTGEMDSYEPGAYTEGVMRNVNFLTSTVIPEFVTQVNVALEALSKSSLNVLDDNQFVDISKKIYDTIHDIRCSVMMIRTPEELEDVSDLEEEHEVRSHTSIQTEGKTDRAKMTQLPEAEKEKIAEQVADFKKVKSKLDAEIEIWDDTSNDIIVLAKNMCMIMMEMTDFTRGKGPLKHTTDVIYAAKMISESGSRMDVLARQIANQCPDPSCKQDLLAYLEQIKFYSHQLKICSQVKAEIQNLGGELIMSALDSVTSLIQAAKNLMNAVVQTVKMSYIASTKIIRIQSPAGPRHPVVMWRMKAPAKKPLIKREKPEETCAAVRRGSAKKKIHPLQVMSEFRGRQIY

PNKP Pro20Ser (human) [6] = target: PNKP Pro20Ser (human) (UniProt Q96T60); remark: listed apart in the source
[7] = target: PNKP, polynucleotide kinase 3'-phosphatase (wild-type allele) (human) (UniProt Q96T60); remark: listed apart in the source
DYNLL1 (human) = DYNLL1 (human) (UniProt P63167)
ARL6IP1 (human) [8] = target: ARL6IP1 (human) (UniProt Q15041); remark: listed apart in the source
MFSD6 (human) [9] = target: MFSD6 (human) (UniProt Q6ZSS7); remark: listed apart in the source
IER3IP1 (human) [10] = target: T3, IER3IP1 (human); remark: listed apart in the source

binding (PNKP Pro20Ser (human) [4]): binds | binding [5]: binds
Molecule: TRIM37 (from UniProt O94972 1-964)

binding (CTNNA3 (human)): binds
B2: TRIM54 (protein, UniProt Q9BYV2 1-358)
chain: MNFTVGFKPLLGDAHSMDNLEKQLICPICLEMFSKPVVILPCQHNLCRKCANDVFQASNPLWQSRGSTTVSSGGRFRCPSCRHEVVLDRHGVYGLQRNLLVENIIDIYKQESSRPLHSKAEQHLMCEEHEEEKINIYCLSCEVPTCSLCKVFGAHKDCEVAPLPTIYKRQKSELSDGIAMLVAGNDRVQAVITQMEEVCQTIEDNSRRQKQLLNQRFESLCAVLEERKGELLQALAREQEEKLQRVRGLIRQYGDHLEASSKLVESAIQSMEEPQMALYLQQAKELINKVGAMSKVELAGRPEPGYESMEQFTVRVEHVAEMLRTIDFQPGASGEEEEVAPDGEEGSAGPEEERPDGP

binding (ARL6IP1 (human) [8]): binds | binding (MFSD6 (human) [9]): binds | binding (IER3IP1 (human) [10]): binds
B5: TMEM258 (protein, UniProt P61165 1-79)
chain: MELEAMSRYTSPVNPAVFPHLTVVLLAIGMFFTAWFFVYEVTSTKYTRDIYKELLISLVASLFMGFGVLFLLLWVGIYV

Further lines, the molecule ahead of its results:

Molecule: SDCBP (syntenin-1) (from UniProt O00560 1-298)
binding (HPRT1 (human)): binds | binding (CEP55 (human)): binds

Molecule: C19ORF18 (from UniProt Q8NEA5 1-215)
binding (ARL6IP1 (human) [1]): binds | binding (MFSD6 (human) [2]): binds | binding (IER3IP1 (human) [3]): binds

Molecule: ARL6IP1 (from UniProt Q15041 1-203)
binding (SUCLA2 (human)): binds

B1: C6ORF222 (protein, UniProt P0C671 1-652)
chain: MENPRCPRRPLAEKKARSLDRPQAPGKGSESWDCHWLSLPTAPSRKALHWTTSDWARHSDSPAPSAEAHCTTAAAPTPEETGDFLPSEQRPSQDTKKGWLKTMLNFFVRTGPEEPREKASRRPRGKEGISQHPEPLEAAGEPALRKKAHHDKKPSRKKQGHKKHAAEVTKAAQDQEARGREEGLSKAAAALRSGEADLGPARRGGEDSDHQSFLIKVDGTGALDVSPHATGHQQEEELKKPDQDAIIQMIVELLKRVGDQWEEEQSLASQLGVALPNPAPAVRKKSQEKKTSLKRTSKTNPKKHGSEEAKRGAADVSSPEAWPPKKSSFLPLCVSGHRPSISSSYGLEEPKVQEAPSTEAGAPGPSVLPTPSESQEPGEELPLDRASEYKEFIQKIISMLQDAEEQQGEEQPQVQQEEVGVENPAPHCRRKSQEKRSSFRRAFYHKKHTSKEPRRAGAAGAASPEARRPKRPSFLPLCVGGHRPSTSSSLDPEDLECREPLPAEGEPVVISEAPSQARGHTPEGAPQLSGACESKEIIIQKLVALLQEVDGQLGQQIRRHPSFKRFFYEFSDSSLSKLVATLRSQVAHSSKLDRNRARRLYQFDVSLANKFAGSNSHAMCILMGLRDHYNCTQFPYREDQPNITSPKVESPD
binding (MAPK9 (human)): binds | binding (BCL2L2 (human)): binds

B3: SYNGR1 (protein, UniProt O43759 1-233)
chain: MEGGAYGAGKAGGAFDPYTLVRQPHTILRVVSWLFSIVVFGSIVNEGYLNSASEGEEFCIYNRNPNACSYGVAVGVLAFLTCLLYLALDVYFPQISSVKDRKKAVLSDIGVSAFWAFLWFVGFCYLANQWQVSKPKDNPLNEGTDAARAAIAFSFFSIFTWAGQAVLAFQRYQIGADSALFSQDYMDPSQDSSMPYAPYVEPTGPDPAGMGGTYQQPANTFDTEPQGYQSQGY
binding (PNKP Pro20Ser (human) [6]): binds | binding [7]: binds

B4: OTUD6A (protein, UniProt Q7L8S5 1-288)
chain: MDDPKSEQQRILRRHQRERQELQAQIRSLKNSVPKTDKTKRKQLLQDVARMEAEMAQKHRQELEKFQDDSSIESVVEDLAKMNLENRPPRSSKAHRKRERMESEERERQESIFQAEMSEHLAGFKREEEEKLAAILGARGLEMKAIPADGHCMYRAIQDQLVFSVSVEMLRCRTASYMKKHVDEFLPFFSNPETSDSFGYDDFMIYCDNIVRTTAWGGQLELRALSHVLKTPIEVIQADSPTLIIGEEYVKKPIILVYLRYAYSLGEHYNSVTPLEAGAAGGVLPRLL
binding (DYNLL1 (human)): binds
